Results on 32 targets are retold here after the supplement of paper PMC10849652.

Sequences of proteins named here, by UniProt entry; tags and fusion partners are left off. A change or cut given only in a name is not applied to a line headed by its entry.
UniProt Q16822, whole entry, looked up: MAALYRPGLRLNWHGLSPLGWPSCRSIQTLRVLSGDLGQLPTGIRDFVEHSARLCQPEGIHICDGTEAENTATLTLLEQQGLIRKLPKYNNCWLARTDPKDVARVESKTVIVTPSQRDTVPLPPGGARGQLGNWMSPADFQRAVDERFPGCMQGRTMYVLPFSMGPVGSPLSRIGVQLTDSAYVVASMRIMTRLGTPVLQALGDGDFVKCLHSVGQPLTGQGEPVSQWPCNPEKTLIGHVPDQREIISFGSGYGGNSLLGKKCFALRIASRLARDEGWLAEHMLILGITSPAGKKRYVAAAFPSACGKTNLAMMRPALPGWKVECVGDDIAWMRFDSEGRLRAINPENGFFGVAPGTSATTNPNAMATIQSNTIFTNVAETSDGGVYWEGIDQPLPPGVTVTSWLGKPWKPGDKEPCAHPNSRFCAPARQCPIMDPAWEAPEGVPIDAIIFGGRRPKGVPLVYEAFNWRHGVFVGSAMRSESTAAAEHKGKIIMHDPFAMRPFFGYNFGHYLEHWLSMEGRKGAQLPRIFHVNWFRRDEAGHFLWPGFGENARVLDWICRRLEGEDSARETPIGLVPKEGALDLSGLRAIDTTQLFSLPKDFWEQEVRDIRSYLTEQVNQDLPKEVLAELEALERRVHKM
UniProt Q86W56: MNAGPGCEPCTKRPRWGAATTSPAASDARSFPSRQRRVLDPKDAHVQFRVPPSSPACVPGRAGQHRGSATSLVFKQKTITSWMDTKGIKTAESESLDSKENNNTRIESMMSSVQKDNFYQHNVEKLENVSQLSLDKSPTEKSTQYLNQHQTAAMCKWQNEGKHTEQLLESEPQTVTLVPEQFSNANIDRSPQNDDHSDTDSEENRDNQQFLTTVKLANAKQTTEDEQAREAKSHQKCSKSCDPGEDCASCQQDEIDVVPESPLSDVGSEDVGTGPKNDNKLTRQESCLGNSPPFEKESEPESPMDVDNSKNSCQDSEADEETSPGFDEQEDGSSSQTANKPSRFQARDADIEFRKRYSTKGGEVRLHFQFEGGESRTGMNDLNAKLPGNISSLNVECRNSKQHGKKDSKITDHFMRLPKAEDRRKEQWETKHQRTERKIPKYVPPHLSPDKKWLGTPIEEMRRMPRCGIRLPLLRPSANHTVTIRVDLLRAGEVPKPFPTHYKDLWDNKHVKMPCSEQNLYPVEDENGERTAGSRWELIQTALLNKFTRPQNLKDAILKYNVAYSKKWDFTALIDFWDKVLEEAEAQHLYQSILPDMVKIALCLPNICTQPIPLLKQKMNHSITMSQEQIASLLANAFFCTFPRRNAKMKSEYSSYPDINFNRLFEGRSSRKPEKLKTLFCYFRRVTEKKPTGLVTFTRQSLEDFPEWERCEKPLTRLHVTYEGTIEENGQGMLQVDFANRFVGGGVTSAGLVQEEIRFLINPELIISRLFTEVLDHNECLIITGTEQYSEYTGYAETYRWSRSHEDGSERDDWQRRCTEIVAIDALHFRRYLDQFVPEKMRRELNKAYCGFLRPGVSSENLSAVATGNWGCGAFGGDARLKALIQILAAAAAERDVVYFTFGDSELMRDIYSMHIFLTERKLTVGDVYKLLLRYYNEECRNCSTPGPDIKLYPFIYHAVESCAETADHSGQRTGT
UniProt Q53EL6: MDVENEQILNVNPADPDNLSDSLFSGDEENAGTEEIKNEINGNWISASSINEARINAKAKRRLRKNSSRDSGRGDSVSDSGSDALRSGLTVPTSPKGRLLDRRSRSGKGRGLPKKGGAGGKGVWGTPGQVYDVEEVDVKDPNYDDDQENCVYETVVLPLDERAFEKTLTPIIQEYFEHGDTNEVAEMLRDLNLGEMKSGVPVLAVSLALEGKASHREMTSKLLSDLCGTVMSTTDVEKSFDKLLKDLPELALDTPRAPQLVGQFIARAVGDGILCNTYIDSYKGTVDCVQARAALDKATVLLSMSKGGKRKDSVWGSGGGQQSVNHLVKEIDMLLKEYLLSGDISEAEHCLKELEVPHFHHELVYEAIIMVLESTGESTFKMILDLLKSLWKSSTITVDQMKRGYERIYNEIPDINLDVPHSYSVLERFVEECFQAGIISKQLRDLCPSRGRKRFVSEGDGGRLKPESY
UniProt Q9NR12, whole entry, looked up: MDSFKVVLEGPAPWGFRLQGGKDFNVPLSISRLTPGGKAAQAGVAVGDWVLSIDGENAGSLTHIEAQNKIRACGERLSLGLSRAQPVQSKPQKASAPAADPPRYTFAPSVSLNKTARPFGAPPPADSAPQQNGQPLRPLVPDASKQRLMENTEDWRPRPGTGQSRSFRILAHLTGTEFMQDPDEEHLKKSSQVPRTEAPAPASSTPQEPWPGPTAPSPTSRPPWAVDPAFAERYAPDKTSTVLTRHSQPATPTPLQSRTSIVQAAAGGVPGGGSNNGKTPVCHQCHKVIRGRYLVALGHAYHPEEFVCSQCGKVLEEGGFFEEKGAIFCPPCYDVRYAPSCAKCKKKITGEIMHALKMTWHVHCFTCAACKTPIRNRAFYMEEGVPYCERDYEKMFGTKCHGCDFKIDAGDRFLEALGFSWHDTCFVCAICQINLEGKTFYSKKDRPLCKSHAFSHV
UniProt Q9Y5K3: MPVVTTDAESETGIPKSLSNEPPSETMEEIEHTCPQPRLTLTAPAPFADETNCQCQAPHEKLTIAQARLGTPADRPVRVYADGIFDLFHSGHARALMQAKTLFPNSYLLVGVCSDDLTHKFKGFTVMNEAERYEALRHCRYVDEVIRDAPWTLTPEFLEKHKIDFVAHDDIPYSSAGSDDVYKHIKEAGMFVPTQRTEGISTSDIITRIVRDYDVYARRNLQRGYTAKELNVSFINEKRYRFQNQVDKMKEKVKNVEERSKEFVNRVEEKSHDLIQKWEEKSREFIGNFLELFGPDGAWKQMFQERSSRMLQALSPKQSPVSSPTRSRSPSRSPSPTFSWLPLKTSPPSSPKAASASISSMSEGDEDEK
UniProt O95613: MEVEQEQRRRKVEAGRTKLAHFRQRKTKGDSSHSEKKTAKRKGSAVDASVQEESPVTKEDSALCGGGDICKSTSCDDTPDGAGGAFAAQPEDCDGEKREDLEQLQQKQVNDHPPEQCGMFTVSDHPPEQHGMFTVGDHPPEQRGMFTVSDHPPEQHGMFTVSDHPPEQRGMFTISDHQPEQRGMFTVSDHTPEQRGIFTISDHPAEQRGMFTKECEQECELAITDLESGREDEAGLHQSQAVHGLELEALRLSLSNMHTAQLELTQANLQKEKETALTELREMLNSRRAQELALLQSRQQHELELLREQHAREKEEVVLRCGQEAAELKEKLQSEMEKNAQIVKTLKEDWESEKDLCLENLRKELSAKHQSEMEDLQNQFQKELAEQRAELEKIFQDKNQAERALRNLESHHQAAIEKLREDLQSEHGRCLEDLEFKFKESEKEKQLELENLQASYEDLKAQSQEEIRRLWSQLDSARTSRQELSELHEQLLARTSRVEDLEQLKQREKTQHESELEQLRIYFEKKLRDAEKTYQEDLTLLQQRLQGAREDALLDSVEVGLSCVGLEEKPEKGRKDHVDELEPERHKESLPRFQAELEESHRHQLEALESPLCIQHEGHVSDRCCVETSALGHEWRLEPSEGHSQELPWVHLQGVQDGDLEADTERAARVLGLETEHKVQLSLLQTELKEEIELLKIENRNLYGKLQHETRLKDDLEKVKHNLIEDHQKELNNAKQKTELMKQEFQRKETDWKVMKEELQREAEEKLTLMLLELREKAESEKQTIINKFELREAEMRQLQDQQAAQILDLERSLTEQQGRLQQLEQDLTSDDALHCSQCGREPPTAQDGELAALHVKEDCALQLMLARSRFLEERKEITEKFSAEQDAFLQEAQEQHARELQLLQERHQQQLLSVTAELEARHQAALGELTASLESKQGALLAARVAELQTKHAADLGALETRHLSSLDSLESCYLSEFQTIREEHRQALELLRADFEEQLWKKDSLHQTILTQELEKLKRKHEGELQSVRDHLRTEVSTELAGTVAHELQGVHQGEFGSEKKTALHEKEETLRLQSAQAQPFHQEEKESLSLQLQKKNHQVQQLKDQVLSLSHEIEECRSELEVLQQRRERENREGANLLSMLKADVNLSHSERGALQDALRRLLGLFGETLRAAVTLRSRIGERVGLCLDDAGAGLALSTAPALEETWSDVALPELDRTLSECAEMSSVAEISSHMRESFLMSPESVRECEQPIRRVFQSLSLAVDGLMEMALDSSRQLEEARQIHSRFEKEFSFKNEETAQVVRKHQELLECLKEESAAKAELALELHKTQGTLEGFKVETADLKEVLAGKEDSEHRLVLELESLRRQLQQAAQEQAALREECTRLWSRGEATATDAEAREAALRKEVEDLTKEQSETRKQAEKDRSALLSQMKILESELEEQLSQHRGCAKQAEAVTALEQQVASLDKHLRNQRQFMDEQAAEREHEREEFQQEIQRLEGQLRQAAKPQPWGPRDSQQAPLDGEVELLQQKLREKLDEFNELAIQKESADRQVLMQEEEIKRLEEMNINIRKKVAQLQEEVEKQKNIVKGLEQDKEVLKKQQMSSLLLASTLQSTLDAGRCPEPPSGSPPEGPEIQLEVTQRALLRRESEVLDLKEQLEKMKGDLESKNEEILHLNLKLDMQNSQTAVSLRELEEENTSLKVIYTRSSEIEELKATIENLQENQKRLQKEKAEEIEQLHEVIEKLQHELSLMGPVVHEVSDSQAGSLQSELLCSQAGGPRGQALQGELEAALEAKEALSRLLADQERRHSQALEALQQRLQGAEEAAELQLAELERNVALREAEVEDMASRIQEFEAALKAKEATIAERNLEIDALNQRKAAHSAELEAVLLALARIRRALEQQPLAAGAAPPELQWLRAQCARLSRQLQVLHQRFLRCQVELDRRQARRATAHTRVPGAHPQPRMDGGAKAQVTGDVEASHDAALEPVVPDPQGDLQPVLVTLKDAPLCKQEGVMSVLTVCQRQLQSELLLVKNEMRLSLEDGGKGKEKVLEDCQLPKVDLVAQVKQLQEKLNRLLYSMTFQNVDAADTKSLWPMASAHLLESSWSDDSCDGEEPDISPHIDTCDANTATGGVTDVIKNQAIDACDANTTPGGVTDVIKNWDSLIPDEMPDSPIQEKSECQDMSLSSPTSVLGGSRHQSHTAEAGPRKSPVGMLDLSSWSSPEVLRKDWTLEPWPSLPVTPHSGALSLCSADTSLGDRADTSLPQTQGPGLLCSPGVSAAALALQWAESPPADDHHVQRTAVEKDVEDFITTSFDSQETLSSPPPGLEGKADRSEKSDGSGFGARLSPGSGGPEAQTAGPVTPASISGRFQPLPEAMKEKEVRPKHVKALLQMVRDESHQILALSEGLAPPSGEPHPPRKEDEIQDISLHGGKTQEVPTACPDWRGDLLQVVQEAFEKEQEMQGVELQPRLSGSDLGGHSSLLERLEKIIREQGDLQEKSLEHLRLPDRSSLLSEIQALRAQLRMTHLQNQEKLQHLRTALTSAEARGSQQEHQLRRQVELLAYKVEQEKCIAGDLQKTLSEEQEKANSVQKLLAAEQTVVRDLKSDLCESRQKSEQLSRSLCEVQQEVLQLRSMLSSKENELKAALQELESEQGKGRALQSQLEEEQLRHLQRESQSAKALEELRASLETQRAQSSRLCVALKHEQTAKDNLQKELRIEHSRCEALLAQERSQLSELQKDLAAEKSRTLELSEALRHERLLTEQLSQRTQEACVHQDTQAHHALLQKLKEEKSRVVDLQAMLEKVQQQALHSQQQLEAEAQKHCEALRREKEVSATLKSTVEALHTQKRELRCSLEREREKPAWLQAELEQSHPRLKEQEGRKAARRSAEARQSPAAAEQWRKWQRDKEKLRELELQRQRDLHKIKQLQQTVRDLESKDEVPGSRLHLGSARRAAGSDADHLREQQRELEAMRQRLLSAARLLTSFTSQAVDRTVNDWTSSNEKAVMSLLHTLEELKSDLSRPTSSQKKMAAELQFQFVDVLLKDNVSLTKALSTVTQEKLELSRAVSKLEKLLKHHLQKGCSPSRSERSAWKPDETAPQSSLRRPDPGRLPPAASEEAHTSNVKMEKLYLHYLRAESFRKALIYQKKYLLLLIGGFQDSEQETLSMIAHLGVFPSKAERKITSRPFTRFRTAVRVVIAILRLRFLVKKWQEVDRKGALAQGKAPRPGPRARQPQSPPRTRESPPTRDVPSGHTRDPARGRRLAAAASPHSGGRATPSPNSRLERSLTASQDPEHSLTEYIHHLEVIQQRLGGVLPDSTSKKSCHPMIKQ
UniProt Q5EBL8: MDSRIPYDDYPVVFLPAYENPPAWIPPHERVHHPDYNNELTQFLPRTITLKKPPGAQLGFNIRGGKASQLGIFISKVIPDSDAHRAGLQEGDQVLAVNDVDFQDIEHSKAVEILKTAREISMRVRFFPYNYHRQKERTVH
UniProt O43924: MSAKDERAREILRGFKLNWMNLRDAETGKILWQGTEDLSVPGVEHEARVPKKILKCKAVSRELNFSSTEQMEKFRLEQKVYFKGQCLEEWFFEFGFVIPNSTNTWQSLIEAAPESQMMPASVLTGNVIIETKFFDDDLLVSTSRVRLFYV

The list shows a part of the results.

Compound in one experiment: CN1CCc2c(c3ccccc3n2Cc2ccc(C(=O)NO)cc2)C1 [Tubastatin A]
The experiment can be described thus: log2 fold change, soluble protein after heating vs DMSO (PISA); higher = thermal stabilisation; K562 cells, 10 uM, 30 min; active = over 0.2 and 3.5 SD of the protein, either way, in both replicates (recomputed). In short, it runs like this:
(§1)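 Values are thermal stability changes relative to control samples and are taken from duplicates. They are stated as log2 fold changes. Before quantification by TMTpro 16plex LC-MS/MS with equalised channel sums, K562 cells at 2×10^6 cells/mL were treated with 10 μM compound for 30 min, heated in aliquots for 3 min across 48°C-58°C, pooled, extracted in PBS with 0.5% NP-40 at 4°C, and centrifuged at 21,000xg for 90 min to give the soluble supernatant.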
For PCK2 (UniProt Q16822), the log2 fold change is inactive: -0.139.
Same read-out and setting: to PARG (UniProt Q86W56) belongs inactive: 0.051; to PCBP2 (UniProt F8VRH0), inactive: 0.155.
Same read-out and setting: to PDCD4 (UniProt Q53EL6) belongs inactive: 0.
For the target PDLIM7 (UniProt Q9NR12), the log2 fold change is inactive: -0.022.
Take PCYT1B (UniProt Q9Y5K3): the log2 fold change is inactive: -0.028.
For PCNT (UniProt O95613), the log2 fold change is inactive: -0.069.
On to PDZD11 isoform 2 (UniProt Q5EBL8), for which the log2 fold change is inactive: 0.122.
Regarding PELP1 (UniProt Q8IZL8), the log2 fold change was inactive: -0.021.

Compound in another experiment: CNC(=O)C1=CC=CC=C1NC2=NC(=NC=C2Cl)NC3=C(C=C(C=C3)N4CCOCC4)OC
The experiment is described as above. The procedure, abridged: as §1
Regarding PARP1 (UniProt P09874), the log2 fold change is inactive: 0.094.
As to PCLAF (UniProt Q15004), the log2 fold change is inactive: -0.094.
In the case of PAFAH1B2 (UniProt P68402), the log2 fold change was inactive: -0.029.
Take PCYT1A (UniProt P49585): the log2 fold change was inactive: 0.032.
Same read-out and setting: to PATL1 (UniProt Q86TB9) belongs inactive: -0.135; to PECAM1 (UniProt P16284), inactive: -0.076.
For the target PCIF1 (UniProt Q9H4Z3), the log2 fold change is inactive: 0.081.
Same read-out and setting: to PCID2 (UniProt Q5JVF3) belongs inactive: -0.033; to PARL (UniProt Q9H300), inactive: 0.025; to PDE2A (UniProt O00408), inactive: 0.01.
For the target PAK4 (UniProt O96013), the log2 fold change was inactive: -0.012.
PAK1 isoform 2 (UniProt Q13153): the log2 fold change is inactive: 0.009.
Same read-out and setting: as for PDE6D (UniProt O43924), the figure is inactive: -0.102; as for PARN (UniProt O95453), inactive: 0.02; as for PDS5A (UniProt Q29RF7), inactive: 0.051.
Take PEX11B (UniProt O96011): the log2 fold change is inactive: 0.001.
As to PCBP1 (UniProt Q15365), the log2 fold change was inactive: -0.015.
On the same count and under the same terms, as for PACS1 (UniProt Q6VY07), the figure is inactive: -0.076; as for PCBP2 isoform 3 (UniProt Q15366), inactive: -0.032; as for PEA15 isoform 2 (UniProt Q15121), inactive: -0.147.
On the same count and under the same terms, as for PBX2 (UniProt P40425), the figure is inactive: -0.022.
On the same count and under the same terms, to PBK (UniProt Q96KB5) belongs inactive: 0.093; to PDPK1 (UniProt O15530), inactive: -0.064; to PCK2 (UniProt Q16822), inactive: -0.006.
In the case of PARG (UniProt Q86W56), the log2 fold change is inactive: -0.113.
PCBP2 (UniProt F8VRH0): the log2 fold change is inactive: 0.105.
Turning to PDCD4 (UniProt Q53EL6), the log2 fold change was inactive: 0.177.
Same read-out and setting: to PDLIM7 (UniProt Q9NR12) belongs inactive: -0.014; to PCYT1B (UniProt Q9Y5K3), inactive: -0.028; to PCNT (UniProt O95613), inactive: -0.098.
Same read-out and setting: as for PDZD11 isoform 2 (UniProt Q5EBL8), the figure is inactive: 0.083; as for PELP1 (UniProt Q8IZL8), inactive: -0.027.

Compound in another experiment: CNC(=O)c1ccc(Nc2ncc(C(F)(F)F)c(NCc3nccnc3N(C)S(C)(=O)=O)n2)cc1 [defactinib]
Described as above. The procedure, abridged:
as §1
PARP1 (UniProt P09874): the log2 fold change was inactive: -0.089.
As to PCLAF (UniProt Q15004), the log2 fold change was inactive: 0.076.
Same read-out and setting: to PAFAH1B2 (UniProt P68402) belongs inactive: 0.022; to PCYT1A (UniProt P49585), inactive: -0.186; to PATL1 (UniProt Q86TB9), inactive: -0.078.
On the same count and under the same terms, to PECAM1 (UniProt P16284) belongs inactive: 0.
Still for that read-out and setting: to PCIF1 (UniProt Q9H4Z3) belongs inactive: -0.148; to PCID2 (UniProt Q5JVF3), inactive: -0.281; to PARL (UniProt Q9H300), inactive: -0.011.
For the target PDE2A (UniProt O00408), the log2 fold change was inactive: -0.094.
On the same count and under the same terms, to PAK4 (UniProt O96013) belongs inactive: -0.017; to PAK1 isoform 2 (UniProt Q13153), inactive: 0.039.
The same measure, in the same setting: to PDE6D (UniProt O43924) belongs inactive: -0.043.
PARN (UniProt O95453): the log2 fold change is inactive: -0.141.
Consider PDS5A (UniProt Q29RF7), for which the log2 fold change is inactive: -0.045.
The same measure, in the same setting: as for PEX11B (UniProt O96011), the figure is inactive: -0.042; as for PCBP1 (UniProt Q15365), inactive: -0.151.
In the case of PACS1 (UniProt Q6VY07), the log2 fold change was inactive: -0.045.
PCBP2 isoform 3 (UniProt Q15366): the log2 fold change was inactive: -0.187.
Regarding PEA15 isoform 2 (UniProt Q15121), the log2 fold change was inactive: -0.026.
Same read-out and setting: to PBX2 (UniProt P40425) belongs inactive: -0.36; to PBK (UniProt Q96KB5), inactive: -0.15.
On the same count and under the same terms, to PDPK1 (UniProt O15530) belongs inactive: -0.025.
On the same count and under the same terms, to PCK2 (UniProt Q16822) belongs inactive: -0.048; to PARG (UniProt Q86W56), inactive: -0.068; to PCBP2 (UniProt F8VRH0), inactive: 0.009.
As to PDCD4 (UniProt Q53EL6), the log2 fold change was inactive: -0.243.
On the same count and under the same terms, to PDLIM7 (UniProt Q9NR12) belongs inactive: -0.083; to PCYT1B (UniProt Q9Y5K3), inactive: -0.162.
Turning to PCNT (UniProt O95613), the log2 fold change is inactive: 0.154.
As to PDZD11 isoform 2 (UniProt Q5EBL8), the log2 fold change is inactive: 0.014.
PELP1 (UniProt Q8IZL8): the log2 fold change is inactive: -0.082.
